These are yes or no findings as the source states them, for the method shown. Binding seen in cells or lysates may run through a third protein. Some results given as binding are weak or reduced against the parent protein; the word gives no strength.
Columns and labels:
[1] = molecular target: HMGA1 recombinant protein (prokaryotic expression, pET28a-sumo) (UniProt P17096); experiment: pull-down; in vitro pull-down with an anti-His antibody after protein purification; recombinant HMGA1 from a prokaryotic expression system
[2] = molecular target: poly(ADP‐ribose) polymerase 1 (PARP1), endogenous (human (endogenous in KYSE30 and KYSE510)) (UniProt P09874); experiment: co-IP; endogenous proteins in KYSE30 and KYSE510 whole-cell extracts, anti-HMGA1 or anti-PARP1 antibody, protein A/G beads, Western blot; also with etoposide (enhanced) and olaparib pretreatment (attenuated)
[3] = molecular target: GFP-tagged HMGA1 (human (cloned from TE13 cells)) (UniProt P17096); experiment: co-IP; KYSE30 cells expressing Flag-tagged PARP1 and GFP-tagged HMGA1, anti-Flag and anti-GFP antibodies, Western blot for HMGA1 and PARP1
[4] = molecular target: Flag-tagged PARP1 (human (cloned from TE13 cells)) (UniProt P09874); experiment: as above
[5] = molecular target: GFP-tagged HMGA1 (human (cloned from TE13 cells)) (UniProt P17096); experiment: co-IP; cells overexpressing GFP-HMGA1 wild type or E47A/E50A, IP with anti-GFP antibody, Western blot for PARP1 and Ku70; with or without etoposide and olaparib
[6] = molecular target: high mobility group A1 (HMGA1), endogenous (human (endogenous in KYSE30 and KYSE510)) (UniProt P17096); experiment: co-IP; endogenous proteins in KYSE30 and KYSE510 whole-cell extracts, anti-HMGA1 or anti-PARP1 antibody, protein A/G beads, Western blot; also with etoposide (enhanced) and olaparib pretreatment (attenuated)

“PARP1 used in the in vitro pull-down (from UniProt P09874 1-1014) (enzyme)” was tested, and the binding [1] was “binds”.
With “high mobility group A1 (HMGA1), endogenous (from UniProt P17096 1-107)” the binding [2] was “binds”.
In the case of “Flag-tagged PARP1 (from UniProt P09874 1-1014) (enzyme)”, the binding [3] was “binds”.
For “GFP-tagged HMGA1 (from UniProt P17096 1-107)”, the binding [4] was “binds”.
“poly(ADP‐ribose) polymerase 1 (PARP1), endogenous (from UniProt P09874 1-1014) (enzyme)” was tested, and the binding [5] was “binds” and the binding [6] was “binds”.

— publication PMC11652107
